The supplement of paper PMC4604168 (melanoma cell lines)
Some of the results follow. Repeats are few or missing, and single values can be far off.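 Imaging used 1,536-well plates; nuclei positive for cleaved PARP by antibody were divided by total DNA-stained nuclei to yield the apoptosis fraction. Doses for screening kept most cells viable, and cell lines differ markedly in resting and induced cleaved-PARP levels.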

Tests used:
Experiment in all cases: cleaved PARP positive nuclei fraction relative to DMSO control; melanoma cells; higher = more apoptosis
Conditions in all cases: library dose: low library concentration; 72 h
[1] = system: MZ2-MEL
[2] = system: MeWo
[3] = system: RPMI7951
[4] = system: RVH-421
[5] = system: SkMel28
[6] = system: SkMel2
[7] = system: SkMel30
[8] = system: SkMel5
[9] = system: UACC257
[10] = system: UACC62
[11] = system: WM115
[12] = system: WM1716
[13] = system: WM1745
[14] = system: WM3526
[15] = system: WM3619
[16] = system: WM451Lu

SMILES | cleaved PARP positive nuclei fraction [1] | cleaved PARP positive nuclei fraction [2] | cleaved PARP positive nuclei fraction [3] | cleaved PARP positive nuclei fraction [4] | cleaved PARP positive nuclei fraction [5] | cleaved PARP positive nuclei fraction [6] | cleaved PARP positive nuclei fraction [7] | cleaved PARP positive nuclei fraction [8] | cleaved PARP positive nuclei fraction [9] | cleaved PARP positive nuclei fraction [10] | cleaved PARP positive nuclei fraction [11] | cleaved PARP positive nuclei fraction [12] | cleaved PARP positive nuclei fraction [13] | cleaved PARP positive nuclei fraction [14] | cleaved PARP positive nuclei fraction [15] | cleaved PARP positive nuclei fraction [16]
C=CCNC1=C2C[C@@H](C)C[C@H](OC)[C@H](O)[C@@H](C)/C=C(\C)[C@H](OC(N)=O)[C@@H](OC)/C=C\C=C(/C)C(=O)NC(=CC1=O)C2=O [Tanespimycin] + OCCn1cc(-c2cnc3nnn(Cc4ccc5ncccc5c4)c3n2)cn1 [PF04217903] (first compound 0.002 µM, partner dose 1 µM) | 103% | 72.5% | 115% | 24.6% | 79.2% | 126% | 56.4% | 70.4% | 34.7% | 67.5% | 34.9% | 82.7% | 103% | 64.5% | 108% | 119%
C[C@]1(c2nc3c(C(N)=O)cccc3[nH]2)CCCN1 [Veliparib] + CN(NC(=O)CC(=O)NN(C)C(=S)c1ccccc1)C(=S)c1ccccc1 [STA4783] (first compound 1.4 µM, partner dose 0.006 µM) | 48.9% | 53.1% | 110% | 49.5% | 64.5% | 54.9% | 96.8% | 136% | 255% | 76.5% | 88.5% | 172% | 272% | 68.7% | 258% | 242%
C[C@]1(c2nc3c(C(N)=O)cccc3[nH]2)CCCN1 [Veliparib] + OCCn1cc(-c2cnc3nnn(Cc4ccc5ncccc5c4)c3n2)cn1 [PF04217903] (first compound 1.4 µM, partner dose 1 µM) | 258% | 101% | 105% | 40.4% | 29.5% | 262% | 70.9% | 122% | 82.1% | 88% | 217% | 59% | 99.7% | 58.9% | 101% | 86.8%
CC(=O)c1c(C)c2cnc(Nc3ccc(N4CCNCC4)cn3)nc2n(C2CCCC2)c1=O [palbociclib] + c1cc(-c2cnn3cc(-c4ccc(OCCN5CCCCC5)cc4)cnc23)ccn1 [Dorsomorphin] (first compound 0.04 µM, partner dose 0.4 µM) | 104% | 43.3% | 177% | 235% | 205% | 49.3% | 108% | 100% | 142% | 142% | 138% | 65.9% | 113% | 116% | 103% | 113%
Cn1cncc1[C@@](N)(c1ccc(Cl)cc1)c1ccc2c(c1)c(-c1cccc(Cl)c1)cc(=O)n2C [tipifarnib] + CN(NC(=O)CC(=O)NN(C)C(=S)c1ccccc1)C(=S)c1ccccc1 [STA4783] (first compound 0.01 µM, partner dose 0.006 µM) | 102% | 38.6% | 154% | 177% | 74.9% | 127% | 59.5% | 151% | 234% | 170% | 391% | 348% | 469% | 32.7% | 233% | 78.3%
COCC[n+]1c2c(n(Cc3cnccn3)c1C)C(=O)c1ccccc1C2=O + O=C(CCCCCCC(=O)Nc1ccccc1)NO [vorinostat] (first compound 0.0004 µM, partner dose 0.08 µM) | 291% | 29.2% | 78.1% | 111% | 45.9% | 179% | 97.9% | 64.3% | 80.9% | 78% | 54.6% | 34.1% | 93% | 54.9% | 89.5% | 163%
CC(=O)c1c(C)c2cnc(Nc3ccc(N4CCNCC4)cn3)nc2n(C2CCCC2)c1=O [palbociclib] + O=C(O)C(=O)Nc1sc2c(c1C(=O)O)CCNC2 [TCS401] (first compound 0.04 µM, partner dose 1.66667 µM) | 178% | 119% | 92.4% | 214% | 274% | 95.5% | 60.5% | 103% | 190% | 127% | 197% | 57.6% | 137% | 111% | 127% | 43.7%
Clc1ccc(Nc2nnc(Cc3ccncc3)c3ccccc23)cc1 [vatalanib] + Cc1ccc(NC(=O)c2cccc(N(C)C)c2)cc1NC(=O)c1ccc(O)cc1 [ZM336372] (first compound 2 µM, partner dose 2 µM) | 93.7% | 157% | 97.9% | 138% | 40.9% | 109% | 78.6% | 97.7% | 32.3% | 70.6% | 47.8% | 40.5% | 105% | 50.2% | 115% | 102%
C=CCNC1=C2C[C@@H](C)C[C@H](OC)[C@H](O)[C@@H](C)/C=C(\C)[C@H](OC(N)=O)[C@@H](OC)/C=C\C=C(/C)C(=O)NC(=CC1=O)C2=O [Tanespimycin] + NC(=O)Nc1cc(-c2cccc(F)c2)sc1C(=O)N[C@H]1CCCNC1 [AZD7762] (first compound 0.002 µM, partner dose 0.02 µM) | 66.9% | 190% | 80.4% | 53.7% | 275% | 116% | 59.4% | 159% | 78.5% | 53.1% | 240% | 142% | 117% | 174% | 228% | 252%
CC(=O)c1c(C)c2cnc(Nc3ccc(N4CCNCC4)cn3)nc2n(C2CCCC2)c1=O [palbociclib] + O=C(CCCCCCC(=O)Nc1ccccc1)NO [vorinostat] (first compound 0.04 µM, partner dose 0.08 µM) | 151% | 93.7% | 118% | 67.3% | 92.1% | 77.8% | 84.7% | 102% | 147% | 139% | 209% | 133% | 131% | 211% | 112% | 130%
COc1cc(Nc2ncc(F)c(Nc3ccc4c(n3)NC(=O)C(C)(C)O4)n2)cc(OC)c1OC [Tamatinib] + COc1cc2c(Oc3ccc4[nH]c(C)cc4c3F)ncnc2cc1OCCCN1CCCC1 [cediranib] (first compound 0.4 µM, partner dose 0.4 µM) | 109% | 111% | 129% | 47.1% | 34.4% | 142% | 91% | 237% | 120% | 104% | 108% | 64.3% | 226% | 60.7% | 102% | 61.9%
CC(=O)c1c(C)c2cnc(Nc3ccc(N4CCNCC4)cn3)nc2n(C2CCCC2)c1=O [palbociclib] + COc1ccc2c(c1)CCC1C2CCC2(C)C(NCCCCCCN3C(=O)C=CC3=O)CCC12 [U73122] (first compound 0.04 µM, partner dose 0.4 µM) | 52.9% | 29.9% | 49.2% | 167% | 112% | 54.4% | 31.3% | 40.9% | 120% | 104% | 75.9% | 142% | 114% | 118% | 13.2% | 106%
Cn1nnc2c(C(N)=O)ncn2c1=O [temozolomide] + CO[C@@H]1[C@H](N(C)C(=O)c2ccccc2)C[C@H]2O[C@]1(C)n1c3ccccc3c3c4c(c5c6ccccc6n2c5c31)C(=O)NC4 [Midostaurin] (first compound 2 µM, partner dose 0.08 µM) | 134% | 60.4% | 53.2% | 264% | 44.8% | 80.6% | 69.7% | 67.6% | 78.1% | 80% | 107% | 122% | 88.3% | 68.3% | 110% | 63.5%
Cc1ccc(NC(=O)c2cccc(N(C)C)c2)cc1NC(=O)c1ccc(O)cc1 + COc1cc2c(Oc3ccc4[nH]c(C)cc4c3F)ncnc2cc1OCCCN1CCCC1 [cediranib] (first compound 2 µM, partner dose 0.4 µM) | 173% | 140% | 43.8% | 114% | 64% | 75.8% | 76.6% | 203% | 33.7% | 73.9% | 203% | 58.4% | 93.5% | 96.3% | 88% | 51.3%
C=CCNC1=C2C[C@@H](C)C[C@H](OC)[C@H](O)[C@@H](C)/C=C(\C)[C@H](OC(N)=O)[C@@H](OC)/C=C\C=C(/C)C(=O)NC(=CC1=O)C2=O [Tanespimycin] + COc1ccc2c(c1)CCC1C2CCC2(C)C(NCCCCCCN3C(=O)C=CC3=O)CCC12 [U73122] (first compound 0.002 µM, partner dose 0.4 µM) | 89.4% | 219% | 284% | 153% | 125% | 17.1% | 163% | 80.1% | 61.8% | 65.3% | 109% | 108% | 94.4% | 75.3% | 93.4% | 82.6%
C=CCNC1=C2C[C@@H](C)C[C@H](OC)[C@H](O)[C@@H](C)/C=C(\C)[C@H](OC(N)=O)[C@@H](OC)/C=C\C=C(/C)C(=O)NC(=CC1=O)C2=O [Tanespimycin] + COc1cc2ncnc(Nc3ccc(Oc4ccccc4)cc3)c2cc1OC [SrcI1] (first compound 0.002 µM, partner dose 2 µM) | 55.3% | 70.8% | 21.7% | 174% | 138% | 96.4% | 452% | 34.6% | 55.5% | 79.4% | 114% | 20.9% | 102% | 82.3% | 97.6% | 49.3%
Clc1ccc(Nc2nnc(Cc3ccncc3)c3ccccc23)cc1 [vatalanib] + CC(C)CCN1c2nc(Nc3cc(F)c(O)c(F)c3)ncc2N(C)C(=O)C1C [BID1870] (first compound 2 µM, partner dose 0.2 µM) | 351% | 33.1% | 42.7% | 152% | 195% | 104% | 20% | 22% | 83.2% | 92.3% | 109% | 69.2% | 107% | 134% | 72.1% | 92%
CC(=O)c1c(C)c2cnc(Nc3ccc(N4CCNCC4)cn3)nc2n(C2CCCC2)c1=O [palbociclib] + COc1ccc(-c2ccc3c(N4CCOCC4)nc(N4C[C@@H](C)O[C@@H](C)C4)nc3n2)cc1CO [KU0063794] (first compound 0.04 µM, partner dose 0.02 µM) | 89.7% | 180% | 99.7% | 255% | 129% | 62.8% | 37% | 82.1% | 110% | 319% | 126% | 576% | 110% | 113% | 125% | 88.6%

Full records as entered above. Order of values: cleaved PARP positive nuclei fraction [1] | cleaved PARP positive nuclei fraction [2] | cleaved PARP positive nuclei fraction [3] | cleaved PARP positive nuclei fraction [4] | cleaved PARP positive nuclei fraction [5] | cleaved PARP positive nuclei fraction [6] | cleaved PARP positive nuclei fraction [7] | cleaved PARP positive nuclei fraction [8] | cleaved PARP positive nuclei fraction [9] | cleaved PARP positive nuclei fraction [10] | cleaved PARP positive nuclei fraction [11] | cleaved PARP positive nuclei fraction [12] | cleaved PARP positive nuclei fraction [13] | cleaved PARP positive nuclei fraction [14] | cleaved PARP positive nuclei fraction [15] | cleaved PARP positive nuclei fraction [16]
C=CCNC1=C2C[C@@H](C)C[C@H](OC)[C@H](O)[C@@H](C)/C=C(\C)[C@H](OC(N)=O)[C@@H](OC)/C=C\C=C(/C)C(=O)NC(=CC1=O)C2=O [Tanespimycin] + NC(=O)Nc1cc(-c2cccc(F)c2)sc1C(=O)N[C@H]1CCCNC1 [AZD7762] (first compound 0.002 µM, partner dose 0.02 µM) reads 66.9% | 190% | 80.4% | 53.7% | 275% | 116% | 59.4% | 159% | 78.5% | 53.1% | 240% | 142% | 117% | 174% | 228% | 252%
CC(=O)c1c(C)c2cnc(Nc3ccc(N4CCNCC4)cn3)nc2n(C2CCCC2)c1=O [palbociclib] + O=C(O)C(=O)Nc1sc2c(c1C(=O)O)CCNC2 [TCS401] (first compound 0.04 µM, partner dose 1.66667 µM) reads 178% | 119% | 92.4% | 214% | 274% | 95.5% | 60.5% | 103% | 190% | 127% | 197% | 57.6% | 137% | 111% | 127% | 43.7%
